Experimental findings from article PMC9412818 are described below.

The chains behind the UniProt entries cited, without tags or fusion partners.
UniProt Q6U7I1: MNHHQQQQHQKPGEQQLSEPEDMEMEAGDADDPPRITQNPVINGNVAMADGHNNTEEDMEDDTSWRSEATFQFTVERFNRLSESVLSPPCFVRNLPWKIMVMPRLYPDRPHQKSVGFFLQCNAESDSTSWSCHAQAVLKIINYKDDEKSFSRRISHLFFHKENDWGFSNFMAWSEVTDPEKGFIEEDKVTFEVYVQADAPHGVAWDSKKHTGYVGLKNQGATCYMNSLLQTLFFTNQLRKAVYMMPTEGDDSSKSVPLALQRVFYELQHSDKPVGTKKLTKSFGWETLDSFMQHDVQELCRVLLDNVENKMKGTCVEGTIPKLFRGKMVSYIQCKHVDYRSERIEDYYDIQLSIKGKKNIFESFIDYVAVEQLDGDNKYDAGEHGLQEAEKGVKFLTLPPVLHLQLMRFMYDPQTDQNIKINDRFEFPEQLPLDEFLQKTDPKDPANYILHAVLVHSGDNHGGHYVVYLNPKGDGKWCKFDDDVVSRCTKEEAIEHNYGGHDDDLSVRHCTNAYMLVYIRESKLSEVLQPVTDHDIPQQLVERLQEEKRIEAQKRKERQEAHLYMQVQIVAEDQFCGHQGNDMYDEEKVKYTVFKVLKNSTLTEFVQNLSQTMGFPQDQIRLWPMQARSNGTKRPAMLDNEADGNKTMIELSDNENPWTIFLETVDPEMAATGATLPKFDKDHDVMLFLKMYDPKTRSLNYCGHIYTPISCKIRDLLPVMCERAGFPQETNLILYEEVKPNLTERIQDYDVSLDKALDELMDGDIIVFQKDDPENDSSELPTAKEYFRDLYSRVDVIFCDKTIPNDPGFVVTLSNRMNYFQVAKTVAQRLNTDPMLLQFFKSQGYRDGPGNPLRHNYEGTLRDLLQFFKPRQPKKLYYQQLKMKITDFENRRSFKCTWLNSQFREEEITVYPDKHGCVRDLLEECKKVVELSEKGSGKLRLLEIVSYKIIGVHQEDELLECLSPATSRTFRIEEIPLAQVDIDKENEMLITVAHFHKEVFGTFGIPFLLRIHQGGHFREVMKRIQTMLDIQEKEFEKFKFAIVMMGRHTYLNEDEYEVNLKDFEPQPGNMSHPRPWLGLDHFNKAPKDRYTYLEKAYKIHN

These are yes or no findings as the source states them, for the method shown. In cells and extracts the contact can be indirect. Some binding calls cover weakened binding; strength is not graded here. Where a sequence is shown, tags or fusion partners need not be part of it.

In this experiment the target is T1, chicken MyD88 (chMyD88), 3xFLAG-tagged (chicken) (UniProt A5HNF6).
T1 sequence: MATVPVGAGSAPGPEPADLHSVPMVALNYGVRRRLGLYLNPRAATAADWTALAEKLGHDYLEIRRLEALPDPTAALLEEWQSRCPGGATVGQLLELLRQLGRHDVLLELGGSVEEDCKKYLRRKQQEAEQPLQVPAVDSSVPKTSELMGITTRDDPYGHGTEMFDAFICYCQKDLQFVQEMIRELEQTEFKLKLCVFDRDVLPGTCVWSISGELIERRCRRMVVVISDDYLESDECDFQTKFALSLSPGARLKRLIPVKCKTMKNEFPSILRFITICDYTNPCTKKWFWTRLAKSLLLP
The experiment is described as follows: co-IP; DF1 cells co-transfected, lysed 24 h later in RIPA buffer (50 mM Tris-HCl pH 7.4, 150 mM NaCl, 0.25% deoxycholic acid, 1 mM EDTA, 1% NP-40, 0.5% SDS); precipitated with anti-FLAG beads overnight at 4°C; immunoblot.

As to “chicken USP7 (chUSP7), MYC-tagged (from UniProt Q6U7I1 1-1101) (enzyme)”, the binding result is given as “binds”.
